In article PMC11876699, “Elongator is a microtubule polymerase selective for polyglutamylated tubulin” (The EMBO Journal, 2025):
These are yes or no findings as the source states them, for the method shown. Some results given as binding are weak or reduced against the parent protein; the word gives no strength. Where a sequence is shown, tags or fusion partners need not be part of it.

T1: GST-Elp4 (Drosophila, co-expressed in E. coli) (Drosophila) (UniProt Q9VMQ7)
T1 sequence: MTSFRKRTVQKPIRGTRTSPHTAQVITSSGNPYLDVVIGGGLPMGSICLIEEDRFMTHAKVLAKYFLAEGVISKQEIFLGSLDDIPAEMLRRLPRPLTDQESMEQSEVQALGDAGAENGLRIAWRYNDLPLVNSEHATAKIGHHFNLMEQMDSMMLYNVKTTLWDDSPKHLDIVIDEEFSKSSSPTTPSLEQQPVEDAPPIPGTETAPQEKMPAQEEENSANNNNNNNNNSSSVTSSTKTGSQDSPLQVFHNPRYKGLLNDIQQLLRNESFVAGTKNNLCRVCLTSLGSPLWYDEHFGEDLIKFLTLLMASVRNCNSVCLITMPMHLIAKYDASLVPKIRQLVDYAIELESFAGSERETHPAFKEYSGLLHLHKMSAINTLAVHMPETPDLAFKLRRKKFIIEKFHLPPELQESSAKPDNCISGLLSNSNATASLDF

T2: Elp456 subcomplex (Drosophila, wild type, untagged) (Drosophila) (UniProt Q9VMQ7+Q24050+Q9VFW4)
T2 sequence 1: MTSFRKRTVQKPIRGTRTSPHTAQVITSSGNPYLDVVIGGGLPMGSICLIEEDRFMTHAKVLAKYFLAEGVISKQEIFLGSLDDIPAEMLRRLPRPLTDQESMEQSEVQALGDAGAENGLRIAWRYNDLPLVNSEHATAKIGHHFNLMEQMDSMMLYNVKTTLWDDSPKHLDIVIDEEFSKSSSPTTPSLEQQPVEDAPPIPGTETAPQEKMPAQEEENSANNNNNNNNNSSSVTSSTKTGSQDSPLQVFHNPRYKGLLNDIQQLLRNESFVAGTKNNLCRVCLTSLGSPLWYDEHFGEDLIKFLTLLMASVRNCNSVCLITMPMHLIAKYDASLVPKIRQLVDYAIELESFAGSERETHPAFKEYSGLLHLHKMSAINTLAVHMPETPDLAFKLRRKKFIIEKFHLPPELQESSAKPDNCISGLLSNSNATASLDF
T2 sequence 2: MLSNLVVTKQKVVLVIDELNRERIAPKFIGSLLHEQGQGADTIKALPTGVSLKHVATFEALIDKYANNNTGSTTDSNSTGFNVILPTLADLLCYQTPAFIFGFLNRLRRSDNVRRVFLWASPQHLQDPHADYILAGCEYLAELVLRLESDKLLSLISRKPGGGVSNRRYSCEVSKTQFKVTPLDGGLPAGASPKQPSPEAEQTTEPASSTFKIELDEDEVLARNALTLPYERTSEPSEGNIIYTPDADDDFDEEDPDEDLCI
T2 sequence 3: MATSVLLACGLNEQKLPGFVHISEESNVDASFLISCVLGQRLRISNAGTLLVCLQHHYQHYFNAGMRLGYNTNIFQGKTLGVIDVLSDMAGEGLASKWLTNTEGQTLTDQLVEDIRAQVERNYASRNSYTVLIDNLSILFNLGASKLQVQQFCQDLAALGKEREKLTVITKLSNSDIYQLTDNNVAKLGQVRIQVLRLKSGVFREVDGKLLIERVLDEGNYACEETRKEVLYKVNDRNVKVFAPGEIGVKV

T3: His6-PC-SNAP-Elp3 (Drosophila, co-expressed in Sf9) (Drosophila melanogaster) (UniProt Q9VQZ6)
T3 sequence: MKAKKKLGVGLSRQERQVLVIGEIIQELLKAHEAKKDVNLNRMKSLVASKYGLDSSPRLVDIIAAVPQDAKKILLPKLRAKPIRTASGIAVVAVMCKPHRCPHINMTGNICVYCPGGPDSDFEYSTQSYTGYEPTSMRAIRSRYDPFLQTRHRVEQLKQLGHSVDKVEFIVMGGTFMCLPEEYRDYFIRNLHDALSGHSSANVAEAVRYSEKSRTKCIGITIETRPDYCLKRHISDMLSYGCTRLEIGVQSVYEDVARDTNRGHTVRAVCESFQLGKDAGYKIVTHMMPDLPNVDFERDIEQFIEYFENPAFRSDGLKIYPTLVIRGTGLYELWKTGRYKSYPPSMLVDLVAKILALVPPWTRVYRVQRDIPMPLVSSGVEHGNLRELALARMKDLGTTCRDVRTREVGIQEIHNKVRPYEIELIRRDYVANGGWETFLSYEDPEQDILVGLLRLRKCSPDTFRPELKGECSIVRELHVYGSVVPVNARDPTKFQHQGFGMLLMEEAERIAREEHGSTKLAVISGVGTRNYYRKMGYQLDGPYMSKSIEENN


Legend:
[1] = target: T1, GST-Elp4 (Drosophila, co-expressed in E. coli) (Drosophila); assay: co-purification (glutathione affinity, TEV elution, size exclusion); GST-Elp4, Elp5 and Elp6 co-expressed in E. coli; held by the GST of Elp4; Superdex 200 in Elongator buffer
[2] = target: T2, Elp456 subcomplex (Drosophila, wild type, untagged) (Drosophila); assay: cross-linking; Elp456 with the Glu10 peptide, sulfo-SDA (2 mM, 365 nm UV) or EDC (5 mM, 30 min on ice), trypsin, LC-MS/MS, XiSearch; both purified
[3] = target: T3, His6-PC-SNAP-Elp3 (Drosophila, co-expressed in Sf9) (Drosophila melanogaster); assay: co-purification (Protein C affinity, heparin, size exclusion); Elp1, Elp2 and His-PC-SNAP-Elp3 co-expressed in Sf9; held by the PC tag of Elp3

binding [1]	binding [3]	Binder	other results
binds		Elp6 (Drosophila, untagged, co-expressed in E. coli) (protein, UniProt Q9VFW4 1-251) MATSVLLACGLNEQKLPGFVHISEESNVDASFLISCVLGQRLRISNAGTLLVCLQHHYQHYFNAGMRLGYNTNIFQGKTLGVIDVLSDMAGEGLASKWLTNTEGQTLTDQLVEDIRAQVERNYASRNSYTVLIDNLSILFNLGASKLQVQQFCQDLAALGKEREKLTVITKLSNSDIYQLTDNNVAKLGQVRIQVLRLKSGVFREVDGKLLIERVLDEGNYACEETRKEVLYKVNDRNVKVFAPGEIGVKV	
		EEEEEEEEEE [Glu10 peptide (10 linear glutamate residues)]	binding [2]: binds
	binds	Elp1 (Drosophila, untagged, co-expressed in Sf9) (protein, UniProt Q9VGK7 1-1252) MRNLKLRYCKELNAVAHPQHLLLQPELNGGASDIYFVVADNKIYAVQESGDVRLKVIADLPDIVGVEFLQLDNAICVASGAGEVILVDPQTGATSEGTFCDVGIESMAWSPNQEVVAFVTRTHNVVLMTSTFDVIAEQPLDAELDPDQQFVNVGWGKKETQFHGSEGKQAAKQKESDSTFIRDEQELNQDVSISWRGDGEFFVVSYVAAQLGRTFKVYDSEGKLNHTAEKSANLKDSVVWRPTGNWIAVPQQFPNKSTIALFEKNGLRHRELVLPFDLQEEPVVQLRWSEDSDILAIRTCAKEEQRVYLYTIGNYHWYLKQVLIFEQADPLALLHWDTRCGAEHTLHVLKESGKHLVYRWAFAVDRNNSIVGVIDGKRLLLTDFDEAIVPPPMSKIVLKFETYINAFISHGTSLWVYTCDRKIYLNEHIHTLGKELQKPIMLMPDAELSGLHLANLTHFSPHYLLATHSSAGSTRLLLLSYKDNDNKPGEWFYRVHSSVRINGLVNAVAVAPYAMNEFYVQTVNNGHTYEVSLKADKTLKVERSYVQLHEPADQIDWVIVKGCIWDGYTGALVTLRNQHLLHIDGYRIGEDVTSFCVVTNYLVYTQLNAMHFVQLDDRRQVASRNIERGAKIVTAVARKARVVLQLPRGNLEAICPRVLVLELVGDLLERGKYQKAIEMSRKQRINLNIIFDHDVKRFVSSVGAFLNDINEPQWLCLFLSELQNEDFTKGMYSSNYDASKQTYPSDYRVDQKVEYVCRLLEQQMNRFVSRFRLPLITAYVKLGCLEMALQVIWKEQQEDASLADQLLQHLLYLVDVNDLYNVALGTYDFGLVLFVAQKSQKDPKEFLPYLNDLKALPIDYRKFRIDDHLKRYTSALSHLAACGEQHYEEALEYIRKHGLYTDGLAFYREHIEFQKNIYVAYADHLRAIAKLDNASLMYERGGQLQQALLSAKHTLDWQRVLVLAKKLSEPLDQVAQSLVGPLQQQGRHMEAYELVKEHCQDRKRQFDVLLEGHLYSRAIYEAGLEDDDVSEKIAPALLAYGVQLESSLQADLQLFLDYKQRLLDIRRNQAKSGEGYIDTDVNLKEVDLLSDTTSLHSSQYSGTSRRTGKTFRSSKNRRKHERKLFSLKPGNPFEDIALIDALHNHVTKIAQQQQPVRDTCKALLQLANAADADPLAAALQREFKTLLQAVDAALDEIWTPELRGNGLMADHLTGPNVDYLALQKEQRYALLSPLKRFKPQLIMMDWQHEILQ	
binds		Elp5 (Drosophila, untagged, co-expressed in E. coli) (protein, UniProt Q24050 1-262) MLSNLVVTKQKVVLVIDELNRERIAPKFIGSLLHEQGQGADTIKALPTGVSLKHVATFEALIDKYANNNTGSTTDSNSTGFNVILPTLADLLCYQTPAFIFGFLNRLRRSDNVRRVFLWASPQHLQDPHADYILAGCEYLAELVLRLESDKLLSLISRKPGGGVSNRRYSCEVSKTQFKVTPLDGGLPAGASPKQPSPEAEQTTEPASSTFKIELDEDEVLARNALTLPYERTSEPSEGNIIYTPDADDDFDEEDPDEDLCI	
	binds	Elp2 (Drosophila, untagged, co-expressed in Sf9) (protein, UniProt Q7K4B3 1-794) MQVENLHTSVACNRCTECADWGPNGWIAYGACNAIAIMDPKFQGNSAKVLFTLVEHTKRVNTVRWLDCDKLLSGGDDAIAILWELDETGTTKSFTLKGHTSGVNTVDGIRQQDGSWLLATAAADTTIKLWTFQDNNYVCFQTISLSDGFCFCLRLQLLPKSNQVLLAFSGDDETVSLWSEQVETAGEGDSLGRQFQRKHKLTGHEDWVRGLDFVVDGEDLLLASGSQDNFIRLWRIAPRSKEQMQENRVDLHQLSHNDDEIKVEEKILQLGKEAWYAVSLESVLYGHEGWIYGVHWHKTPDQELRLLSASIDKTVIIWAPTEEGIWLEEVRVGEVGGNSVGFYGGKFSGDGHSIMAHSYQGGFHIWSQDPDRPQLWTPGVIVGGHYGEVRDLAWEHSGAYLMTASADQTTRLHAPWLQDGANPTWHELARPQIHGYDMQALALLSRYKFASGAEEKIVRTFQAPANFIENFRHISGIENDDAGDVLLDSLPKGASVPSLGLSNKAVYKVDSEVESTSKTSKDEYPDNYFVPIALETPPQEETLMQNTLWPELQKLYGHGYEIFALAATADGSLLASTCKASNAEHAQIILWNPSNWKQIQKLSGHQLTVTQLSFSPDSRYLLSVSRDRRWCLYERQDSSVSYQLVASTDKSNGVHTRIIWSCDWSHDGQFFVTSSRDGKVVVWKKEEDCKESSLNGWQANGVLELKNESITAVAFSNSYLSGTDDTYILALGTETGLIKIYQFVRGAWKLLSDLNKSQAHHLTVRRLQFRPGKQLQLASCGEDHLVRIYDIKLT	
